# Measured data: PubChem BioAssay AID1259254 (NCATS, 2017)
# Test: 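Genome-wide screen for genes that prevent DNA re-replication in cancer cells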 (primary screen)
# Cell system: human HCT116 colorectal cancer cells
# Knock-down reagent: single siRNA against human genes
# Timing: 3 days
# Measurement: 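Imaged Hoechst DNA stain sorts each cell into a cycle phase by DNA amount; per plate, G2 fraction set to 0% for non-targeting and 100% for GMNN siRNA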
# Direction: G2 robust z-score and G2 cells, % of GMNN control: higher = more G2 cells, more excess DNA replication; raw share of cells in G2: higher = larger share of cells with G2 DNA content
# Hit rule: 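Active siRNAs have a G2 robust z of 5 or more median absolute deviations over the median, which in these data means about 38% or higher of GMNN control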
# The deposit covers about 59,000 reagents; shown is a part drawn at random. Over the whole deposit, about 1,550 (2.6%) got an active call. 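G2 share is only a proxy for re-replication; each gene was hit by three separate siRNAs, and active genes were retested.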 Raw values vary from plate to plate and are shown uncorrected. Unmarked entries are inactive. The numbers tell different reagents against one gene apart. No sequences are given here. The record does not give: the amount of reagent.
target gene,siRNA no.,G2 robust z-score,"G2 cells, % of GMNN control",raw share of cells in G2 (%)
MET (GeneID 4233),1,-1.36,-6.58,3.44
MET (GeneID 4233),2,-0.599,-1.25,4.99
MET (GeneID 4233),3,-0.942,-3.66,2.73
MED24 (GeneID 9862),1,0.214,4.48,4.73
MED24 (GeneID 9862),2,-1.3,-6.19,2.86
MED24 (GeneID 9862),3,0.279,4.93,6.75
RPL19 (GeneID 6143),1,4.18,32.4,18.8
RPL19 (GeneID 6143),2,2.71,22.1,12.9
RPL19 (GeneID 6143),3,1.86,16,9.15
ALPI (GeneID 248),1,-1.32,-6.33,2.74
ALPI (GeneID 248),2,-1.52,-7.7,1.98
ALPI (GeneID 248),3,0.544,6.8,5.54
ZNF419 (GeneID 79744),1,-0.728,-2.16,2.03
ZNF419 (GeneID 79744),2,-0.332,0.63,6.19
ZNF419 (GeneID 79744),3,0.974,9.82,6.72
NEUROD2 (GeneID 4761),1,-0.528,-0.747,5.17
NEUROD2 (GeneID 4761),2,6.8 (active),50.8,25
NEUROD2 (GeneID 4761),3,-0.591,-1.19,2.8
VPS36 (GeneID 51028),1,-0.338,0.591,4.08
VPS36 (GeneID 51028),2,-0.716,-2.07,3.76
VPS36 (GeneID 51028),3,0.475,6.31,5.24
EXOC3 (GeneID 11336),1,2.2,18.4,12.2
EXOC3 (GeneID 11336),2,1.08,10.6,8.5
EXOC3 (GeneID 11336),3,-0.184,1.67,3.8
CENPK (GeneID 64105),1,0.778,8.44,8.26
CENPK (GeneID 64105),2,0.196,4.35,6.56
CENPK (GeneID 64105),3,0.203,4.39,3.86
CROCC (GeneID 9696),1,0.31,5.15,7.66
CROCC (GeneID 9696),2,-1.16,-5.2,1.77
CROCC (GeneID 9696),3,0.456,6.17,5.65
OR7G1 (GeneID 125962),1,1.43,13,9.09
OR7G1 (GeneID 125962),2,3.69,29,12.3
OR7G1 (GeneID 125962),3,-0.0141,2.87,3.62
HADH (GeneID 3033),1,-0.45,-0.199,4.97
HADH (GeneID 3033),2,-0.638,-1.52,3.64
HADH (GeneID 3033),3,2.2,18.5,12.7

Continued, starting with the last 8 of the part before.
target gene,siRNA no.,G2 robust z-score,"G2 cells, % of GMNN control",raw share of cells in G2 (%)
CROCC (GeneID 9696),2,-1.16,-5.2,1.77
CROCC (GeneID 9696),3,0.456,6.17,5.65
OR7G1 (GeneID 125962),1,1.43,13,9.09
OR7G1 (GeneID 125962),2,3.69,29,12.3
OR7G1 (GeneID 125962),3,-0.0141,2.87,3.62
HADH (GeneID 3033),1,-0.45,-0.199,4.97
HADH (GeneID 3033),2,-0.638,-1.52,3.64
HADH (GeneID 3033),3,2.2,18.5,12.7
WDR45 (GeneID 11152),1,2.15,18.1,12.1
WDR45 (GeneID 11152),2,-0.198,1.57,4.78
WDR45 (GeneID 11152),3,-1.1,-4.77,1.39
HNRNPA2B1 (GeneID 3181),1,0.231,4.6,6.71
HNRNPA2B1 (GeneID 3181),2,0.55,6.84,6.71
HNRNPA2B1 (GeneID 3181),3,-0.655,-1.64,5.06
CEBPA (GeneID 1050),1,0.0384,3.24,6.82
CEBPA (GeneID 1050),2,0.793,8.55,7.22
CEBPA (GeneID 1050),3,1.94,16.6,10
PPP4R4 (GeneID 57718),1,-0.0615,2.53,5.35
PPP4R4 (GeneID 57718),2,-0.904,-3.39,2.84
PPP4R4 (GeneID 57718),3,0.365,5.53,4.78
FAM193A (GeneID 8603),1,-0.256,1.17,5.65
FAM193A (GeneID 8603),2,1.02,10.1,7.9
FAM193A (GeneID 8603),3,0.627,7.38,5.96
ABCG4 (GeneID 64137),1,0.627,7.38,8.7
ABCG4 (GeneID 64137),2,3.23,25.7,13.4
ABCG4 (GeneID 64137),3,-0.958,-3.77,2.85
TREML4 (GeneID 285852),1,0.3,5.08,5.49
TREML4 (GeneID 285852),2,0.128,3.87,4.54
TREML4 (GeneID 285852),3,-0.393,0.203,3.33
RMP64 (GeneID 25871),1,1.92,16.5,10.6
RMP64 (GeneID 25871),2,0.346,5.4,6.28
RMP64 (GeneID 25871),3,-0.168,1.79,3.92
FBXO40 (GeneID 51725),1,3.04,24.3,12.3
FBXO40 (GeneID 51725),2,0.487,6.39,6.96
FBXO40 (GeneID 51725),3,2.53,20.8,10.1
NPHP1 (GeneID 4867),1,0.928,9.5,7.23
NPHP1 (GeneID 4867),2,0.715,8,8.59
NPHP1 (GeneID 4867),3,4.94,37.7,16.8
BORA (GeneID 79866),1,0.75,8.25,7.87
BORA (GeneID 79866),2,-0.0975,2.28,5.3
BORA (GeneID 79866),3,3,24.1,8.97
